Data reported in the supplement of paper PMC6078165.

System: MDAMB468
Assay: relative JC-1 red fluorescence (viability) vs pre-drug, coculture with fibroblast (fraction); higher = more viable cancer cells
Description: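 JC-1 labelled TNBC cells cocultured 1:1 (1,500 cells each) with CellTrace Violet stained primary or stromal fibroblasts in 384-well plates in FluoroBrite medium, treated with one of 42 anticancer drugs at 0.1, 1, 10 or 100 uM. JC-1 red fluorescence (mitochondrial integrity in cancer cells only) was read by plate reader every 8 h for 72 h. Values are normalised to each well's pre-drug value. The stock of one drug was tenfold lower, so its dose labels may be too high.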

N.N.[Cl][Pt][Cl] [Cisplatin]
relative JC-1 red fluorescence
Settings | 8 h | 16 h | 24 h | 32 h | 40 h | 48 h | 56 h | 64 h | 72 h
0.1 µM, coculture fibroblast: C12385 | 0.8646 | 0.817 | 0.795 | 0.747 | 0.7141 | 0.717 | 0.682 | 0.676 | 0.672
0.1 µM, coculture fibroblast: H6013 | 0.892 | 0.881 | 0.854 | 0.861 | 0.841 | 0.848 | 0.833 | 0.821 | 0.773
0.1 µM, coculture fibroblast: H6019 | 0.875 | 0.867 | 0.853 | 0.818 | 0.781 | 0.769 | 0.713 | 0.677 | 0.652
0.1 µM, coculture fibroblast: H6076 | 0.8874 | 0.908 | 0.851 | 0.849 | 0.788 | 0.779 | 0.735 | 0.728 | 0.762
0.1 µM, coculture fibroblast: H6231 | 0.826 | 0.9311 | 0.8627 | 0.826 | 0.78 | 0.75 | 0.7 | 0.667 | 0.65
0.1 µM, coculture fibroblast: HADF | 0.8573 | 0.83 | 0.771 | 0.761 | 0.722 | 0.718 | 0.7 | 0.688 | 0.652
0.1 µM, coculture fibroblast: HCFa | 0.8528 | 0.82145 | 0.7683 | 0.737 | 0.672 | 0.66 | 0.611 | 0.576 | 0.529
0.1 µM, coculture fibroblast: HCPF | 0.851 | 0.931 | 0.854 | 0.844 | 0.78 | 0.753 | 0.7031 | 0.697 | 0.694
0.1 µM, coculture fibroblast: HHSteC | 0.8898 | 0.859 | 0.816 | 0.788 | 0.754 | 0.752 | 0.706 | 0.684 | 0.633
0.1 µM, coculture fibroblast: HMF | 0.81911 | 0.9298 | 0.84 | 0.806 | 0.7451 | 0.722 | 0.683 | 0.667 | 0.6462
0.1 µM, coculture fibroblast: HPFa | 0.914 | 0.878 | 0.841 | 0.782 | 0.75 | 0.753 | 0.694 | 0.667 | 0.592
0.1 µM, coculture fibroblast: HUF | 0.927 | 0.876 | 0.868 | 0.827 | 0.776 | 0.767 | 0.731 | 0.727 | 0.713
0.1 µM, coculture fibroblast: Hs5 | 0.892 | 0.95 | 0.905 | 0.8738 | 0.815 | 0.781 | 0.748 | 0.724 | 0.744
0.1 µM, coculture fibroblast: Hs27A | 0.8505 | 0.83 | 0.76815 | 0.7603 | 0.699 | 0.69652 | 0.662 | 0.645 | 0.617
0.1 µM, coculture fibroblast: Hs343T | 0.865 | 0.911 | 0.847 | 0.827 | 0.775 | 0.76 | 0.711 | 0.702 | 0.681
0.1 µM, coculture fibroblast: WS1 | 0.8405 | 0.791 | 0.75 | 0.692 | 0.653 | 0.624 | 0.601 | 0.594 | 0.591
1 µM, coculture fibroblast: C12385 | 0.853 | 0.799 | 0.761 | 0.713 | 0.677 | 0.677 | 0.645 | 0.628 | 0.619
1 µM, coculture fibroblast: H6013 | 0.867 | 0.866 | 0.83 | 0.816 | 0.795 | 0.8017 | 0.7715 | 0.767 | 0.701
1 µM, coculture fibroblast: H6019 | 0.833 | 0.8005 | 0.767 | 0.712 | 0.661 | 0.649 | 0.6 | 0.579 | 0.546
1 µM, coculture fibroblast: H6076 | 0.9228 | 0.925 | 0.8748 | 0.854 | 0.795 | 0.776 | 0.747 | 0.726 | 0.763
1 µM, coculture fibroblast: H6231 | 0.865 | 0.921 | 0.898 | 0.903 | 0.844 | 0.824 | 0.775 | 0.751 | 0.74
1 µM, coculture fibroblast: HADF | 0.8622 | 0.846 | 0.8005 | 0.7848 | 0.764 | 0.748 | 0.7 | 0.684 | 0.6251
1 µM, coculture fibroblast: HCFa | 0.852 | 0.841 | 0.784 | 0.74 | 0.687 | 0.684 | 0.637 | 0.606 | 0.552
1 µM, coculture fibroblast: HCPF | 0.849 | 0.878 | 0.814 | 0.817 | 0.751 | 0.722 | 0.699 | 0.687 | 0.688
1 µM, coculture fibroblast: HHSteC | 0.8897 | 0.866 | 0.84 | 0.798 | 0.778 | 0.784 | 0.718 | 0.703 | 0.647
1 µM, coculture fibroblast: HMF | 0.829 | 0.869 | 0.825 | 0.8 | 0.729 | 0.716 | 0.68 | 0.658 | 0.644
1 µM, coculture fibroblast: HPFa | 0.899 | 0.904 | 0.872 | 0.8134 | 0.7894 | 0.787 | 0.727 | 0.707 | 0.636
1 µM, coculture fibroblast: HUF | 0.8964 | 0.826 | 0.771 | 0.712 | 0.666 | 0.65 | 0.599 | 0.575 | 0.554
1 µM, coculture fibroblast: Hs5 | 0.96056 | 0.907 | 0.888 | 0.868 | 0.797 | 0.785 | 0.766 | 0.743 | 0.763
1 µM, coculture fibroblast: Hs27A | 0.8467 | 0.827 | 0.752 | 0.742 | 0.6955 | 0.6945 | 0.677 | 0.671 | 0.621
1 µM, coculture fibroblast: Hs343T | 0.868 | 0.907 | 0.874 | 0.8536 | 0.78442 | 0.756 | 0.7 | 0.67 | 0.666
1 µM, coculture fibroblast: WS1 | 0.858 | 0.798 | 0.7379 | 0.6689 | 0.6215 | 0.592 | 0.549 | 0.521 | 0.504
10 µM, coculture fibroblast: C12385 | 0.815 | 0.683 | 0.627 | 0.583 | 0.539 | 0.539 | 0.506 | 0.496 | 0.489
10 µM, coculture fibroblast: H6013 | 0.837 | 0.702 | 0.634 | 0.599 | 0.583 | 0.593 | 0.571 | 0.564 | 0.507
10 µM, coculture fibroblast: H6019 | 0.8419 | 0.769 | 0.758 | 0.719 | 0.693 | 0.706 | 0.675 | 0.665 | 0.663
10 µM, coculture fibroblast: H6076 | 0.942 | 0.881 | 0.799 | 0.7914 | 0.705 | 0.7 | 0.663 | 0.644 | 0.705
10 µM, coculture fibroblast: H6231 | 0.833 | 0.8567 | 0.662 | 0.613 | 0.503 | 0.466 | 0.428 | 0.408 | 0.417
10 µM, coculture fibroblast: HADF | 0.834 | 0.69 | 0.605 | 0.552 | 0.527 | 0.519 | 0.486 | 0.478 | 0.415
10 µM, coculture fibroblast: HCFa | 0.833 | 0.7336 | 0.6462 | 0.5855 | 0.546 | 0.547 | 0.499 | 0.479 | 0.418
10 µM, coculture fibroblast: HCPF | 0.843 | 0.8338 | 0.685 | 0.657 | 0.562 | 0.5216 | 0.463 | 0.451 | 0.452
10 µM, coculture fibroblast: HHSteC | 0.848 | 0.719 | 0.649 | 0.585 | 0.572 | 0.5841 | 0.53281 | 0.5203 | 0.457
10 µM, coculture fibroblast: HMF | 0.817 | 0.806 | 0.647 | 0.598 | 0.508 | 0.486 | 0.441 | 0.431 | 0.426
10 µM, coculture fibroblast: HPFa | 0.873 | 0.735 | 0.661 | 0.581 | 0.565 | 0.574 | 0.531 | 0.52 | 0.458
10 µM, coculture fibroblast: HUF | 0.8424 | 0.69 | 0.616 | 0.5496 | 0.5155 | 0.51 | 0.4738 | 0.472 | 0.461
10 µM, coculture fibroblast: Hs5 | 0.853 | 0.83 | 0.71 | 0.658 | 0.572 | 0.545 | 0.529 | 0.509 | 0.548
10 µM, coculture fibroblast: Hs27A | 0.819 | 0.723 | 0.654 | 0.636 | 0.625 | 0.636 | 0.602 | 0.59 | 0.517
10 µM, coculture fibroblast: Hs343T | 0.857 | 0.833 | 0.6683 | 0.602 | 0.497 | 0.456 | 0.4168 | 0.406 | 0.399
10 µM, coculture fibroblast: WS1 | 0.796 | 0.662 | 0.583 | 0.511 | 0.463 | 0.443 | 0.415 | 0.408 | 0.402
100 µM, coculture fibroblast: C12385 | 0.712 | 0.6122 | 0.557 | 0.509 | 0.481 | 0.4778 | 0.453 | 0.439 | 0.434
100 µM, coculture fibroblast: H6013 | 0.709 | 0.584 | 0.501 | 0.451 | 0.449 | 0.441 | 0.418 | 0.406 | 0.353
100 µM, coculture fibroblast: H6019 | 0.781 | 0.671 | 0.586 | 0.512 | 0.453 | 0.434 | 0.387 | 0.362 | 0.341
100 µM, coculture fibroblast: H6076 | 0.827 | 0.618 | 0.516 | 0.505 | 0.432 | 0.422 | 0.398 | 0.378 | 0.405
100 µM, coculture fibroblast: H6231 | 0.864 | 0.691 | 0.598 | 0.618 | 0.517 | 0.506 | 0.47 | 0.462 | 0.475
100 µM, coculture fibroblast: HADF | 0.7811 | 0.675 | 0.564 | 0.48111 | 0.459 | 0.452 | 0.423 | 0.412 | 0.349
100 µM, coculture fibroblast: HCFa | 0.81208 | 0.802 | 0.666 | 0.57 | 0.528 | 0.514 | 0.475 | 0.451 | 0.393
100 µM, coculture fibroblast: HCPF | 0.833 | 0.69 | 0.594 | 0.602 | 0.503 | 0.478 | 0.457 | 0.447 | 0.46
100 µM, coculture fibroblast: HHSteC | 0.783 | 0.679 | 0.615 | 0.551 | 0.552 | 0.554 | 0.503 | 0.493 | 0.439
100 µM, coculture fibroblast: HMF | 0.769 | 0.624 | 0.518 | 0.486 | 0.404 | 0.388 | 0.365 | 0.356 | 0.3548
100 µM, coculture fibroblast: HPFa | 0.8117 | 0.696 | 0.632 | 0.551 | 0.558 | 0.556 | 0.514 | 0.505 | 0.443
100 µM, coculture fibroblast: HUF | 0.809 | 0.673 | 0.599 | 0.522 | 0.468 | 0.46 | 0.425 | 0.406 | 0.39
100 µM, coculture fibroblast: Hs5 | 0.874 | 0.6587 | 0.582 | 0.548 | 0.47 | 0.451 | 0.433 | 0.418 | 0.444
100 µM, coculture fibroblast: Hs27A | 0.7244 | 0.6742 | 0.5605 | 0.512 | 0.505 | 0.503 | 0.482 | 0.475 | 0.412
100 µM, coculture fibroblast: Hs343T | 0.816 | 0.632 | 0.517 | 0.481 | 0.394 | 0.381 | 0.366 | 0.36 | 0.365
100 µM, coculture fibroblast: WS1 | 0.778 | 0.637 | 0.431 | 0.337 | 0.301 | 0.291 | 0.27 | 0.261 | 0.254

Values are relative to the signal before dosing, not to a vehicle control; the signal also falls without drug.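 Fibroblast labels denote human fibroblasts, mainly primary ones from uterus (C12385, HUF), lung (H6013), bone (Hs27A), adrenal (HADF) and skin (WS1), plus mammary HMF and breast cancer-associated Hs343T. Cancer cells are basal-like or mesenchymal-like triple-negative breast cancer lines. A hit is a response shift exceeding 3x replicate standard deviation. The tissue of the other fibroblasts is not given here.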
